Results published in PMC8682746.

Sequences of proteins named here, by UniProt entry; tags and fusion partners are left off. A change or cut given only in a name is not applied to a line headed by its entry.
UniProt Q386L5: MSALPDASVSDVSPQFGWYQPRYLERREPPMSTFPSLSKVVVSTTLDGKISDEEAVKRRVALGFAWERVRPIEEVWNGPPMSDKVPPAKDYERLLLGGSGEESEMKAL
UniProt Q581Y9: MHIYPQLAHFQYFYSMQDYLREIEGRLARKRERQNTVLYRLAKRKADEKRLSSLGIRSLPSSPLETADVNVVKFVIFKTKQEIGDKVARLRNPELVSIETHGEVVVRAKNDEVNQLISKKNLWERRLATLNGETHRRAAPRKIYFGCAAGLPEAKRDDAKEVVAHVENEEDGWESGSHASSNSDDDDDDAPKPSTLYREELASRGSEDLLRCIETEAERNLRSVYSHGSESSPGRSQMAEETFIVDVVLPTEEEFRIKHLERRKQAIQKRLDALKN
UniProt Q38A09: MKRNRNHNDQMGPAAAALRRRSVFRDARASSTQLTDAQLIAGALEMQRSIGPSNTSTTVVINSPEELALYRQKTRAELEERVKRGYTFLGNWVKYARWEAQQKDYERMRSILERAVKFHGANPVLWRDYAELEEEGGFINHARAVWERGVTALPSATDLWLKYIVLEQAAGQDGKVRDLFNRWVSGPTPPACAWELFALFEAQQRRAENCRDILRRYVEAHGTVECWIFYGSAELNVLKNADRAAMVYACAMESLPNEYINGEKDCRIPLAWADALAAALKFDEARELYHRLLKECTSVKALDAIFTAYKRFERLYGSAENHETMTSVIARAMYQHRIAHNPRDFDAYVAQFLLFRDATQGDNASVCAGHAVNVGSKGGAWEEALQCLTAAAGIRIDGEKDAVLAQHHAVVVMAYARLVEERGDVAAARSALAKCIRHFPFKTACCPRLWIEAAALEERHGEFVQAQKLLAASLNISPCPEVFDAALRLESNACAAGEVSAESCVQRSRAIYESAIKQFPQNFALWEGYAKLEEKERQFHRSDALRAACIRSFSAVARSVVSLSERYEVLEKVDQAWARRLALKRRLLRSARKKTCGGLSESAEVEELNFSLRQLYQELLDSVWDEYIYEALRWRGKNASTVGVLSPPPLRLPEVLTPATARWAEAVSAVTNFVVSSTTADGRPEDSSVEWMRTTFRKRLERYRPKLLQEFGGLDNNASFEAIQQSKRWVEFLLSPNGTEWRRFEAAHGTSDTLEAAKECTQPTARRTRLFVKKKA

Molecular target: PRC5-PTP (Trypanosoma brucei) (UniProt Q386L5)
Assay: co-sedimentation; final eluate of a standard PRC5-PTP tandem affinity purification sedimented through a 4 ml linear 10-40% sucrose gradient by ultracentrifugation, 20 fractions, SDS-PAGE, SYPRO Ruby; bands identified by LC/MS/MS; peak in fractions 13 and 14

Row | binding | Substance
1 | binds | ISY1 (from UniProt Q581Y9)
2 | binds | SYF3 (from UniProt Q38A09)

Results are given in words; binding and its absence hold for the method and conditions named. Binding seen in cells or lysates may run through a third protein. Binding can be weak; no strength is given.
